From article PMC11423193
Results are given in words; binding and its absence hold for the method and conditions named. In cells and extracts the contact can be indirect. Some binding calls cover weakened binding; strength is not graded here. Sequences can lack the tags named with a protein.

How the values were obtained:
[1] = target: T1, HDAC7-Flag (UniProt Q8WUI4); experiment: co-IP; 293T cells transfected with HDAC7-Flag, without compound or treated with TMP269 (5 µM) for 12 h; RIPA lysis buffer; Flag beads overnight at 4 °C; immunoblot with anti-Flag, anti-TAK1, anti-TRAF6
T1 sequence: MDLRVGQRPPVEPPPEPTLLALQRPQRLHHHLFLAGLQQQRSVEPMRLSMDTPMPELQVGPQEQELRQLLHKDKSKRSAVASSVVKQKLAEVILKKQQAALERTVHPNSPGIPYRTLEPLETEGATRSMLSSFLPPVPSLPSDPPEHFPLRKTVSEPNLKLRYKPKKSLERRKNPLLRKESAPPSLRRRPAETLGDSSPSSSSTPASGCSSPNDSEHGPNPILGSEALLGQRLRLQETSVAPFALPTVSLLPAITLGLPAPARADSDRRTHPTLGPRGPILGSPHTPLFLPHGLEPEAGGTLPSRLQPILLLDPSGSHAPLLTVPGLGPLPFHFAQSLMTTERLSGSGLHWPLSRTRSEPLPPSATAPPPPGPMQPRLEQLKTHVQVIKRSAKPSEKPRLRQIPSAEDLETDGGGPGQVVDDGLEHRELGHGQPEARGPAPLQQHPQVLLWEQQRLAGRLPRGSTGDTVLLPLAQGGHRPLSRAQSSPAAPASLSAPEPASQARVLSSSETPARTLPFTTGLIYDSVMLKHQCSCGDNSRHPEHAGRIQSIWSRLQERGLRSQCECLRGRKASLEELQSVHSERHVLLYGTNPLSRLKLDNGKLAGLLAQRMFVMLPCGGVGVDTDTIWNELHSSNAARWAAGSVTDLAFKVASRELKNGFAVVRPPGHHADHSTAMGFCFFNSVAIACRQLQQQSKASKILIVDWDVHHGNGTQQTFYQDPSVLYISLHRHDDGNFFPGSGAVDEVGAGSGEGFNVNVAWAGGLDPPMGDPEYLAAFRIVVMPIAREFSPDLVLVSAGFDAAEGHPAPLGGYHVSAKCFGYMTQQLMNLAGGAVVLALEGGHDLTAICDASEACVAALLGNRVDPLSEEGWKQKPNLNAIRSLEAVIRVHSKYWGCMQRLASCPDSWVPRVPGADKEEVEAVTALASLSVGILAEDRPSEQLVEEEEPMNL

[2] = target: T1, HDAC7-Flag; experiment: condition: only cells treated with B4 (5 µM) for 12 h; co-IP; 293T cells transfected with HDAC7-Flag and treated with B4 (5 µM) for 12 h; RIPA lysis buffer; Flag beads overnight at 4 °C; immunoblot with anti-Flag, anti-TAK1, anti-TRAF6

B1: TGFβ-activated kinase 1 (protein, UniProt O43318 1-606)
chain: MSTASAASSSSSSSAGEMIEAPSQVLNFEEIDYKEIEVEEVVGRGAFGVVCKAKWRAKDVAIKQIESESERKAFIVELRQLSRVNHPNIVKLYGACLNPVCLVMEYAEGGSLYNVLHGAEPLPYYTAAHAMSWCLQCSQGVAYLHSMQPKALIHRDLKPPNLLLVAGGTVLKICDFGTACDIQTHMTNNKGSAAWMAPEVFEGSNYSEKCDVFSWGIILWEVITRRKPFDEIGGPAFRIMWAVHNGTRPPLIKNLPKPIESLMTRCWSKDPSQRPSMEEIVKIMTHLMRYFPGADEPLQYPCQYSDEGQSNSATSTGSFMDIASTNTSNKSDTNMEQVPATNDTIKRLESKLLKNQAKQQSESGRLSLGASRGSSVESLPPTSEGKRMSADMSEIEARIAATTAYSKPKRGHRKTASFGNILDVPEIVISGNGQPRRRSIQDLTVTGTEPGQVSSRSSSPSVRMITTSGPTSEKPTRSHPWTPDDSTDTNGSDNSIPMAYLTLDHQLQPLAPCPNSKESMAVFEQHCKMAQEYMKVQTEIALLLQRKQELVAELDQDEKDQQNTSRLVQEHKKLLDENKSLSTYYQQCKKQLEVIRSQQQKRQGTS
For B1, the binding [1] was “binds” and the binding [2] was “no binding”.
